# Library screen at single concentrations

From ChEMBL document CHEMBL3988442, “University of Dundee, Small-Polar-MMV Screening Library” (2021).

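Growth of Mycobacterium tuberculosis over 4 days (cholesterol / DPPC medium with tyloxapol); the read-out is not stated. Tested at 500 µM. The record gives no direction; compounds that gave an IC50 in retests scored well above the rest, so higher reads as more growth inhibition. About 18,000 compounds were tested under these conditions; 5% (about 900) showed 50% or more at least once.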

Values are the deposited “Percent Effect”, in %. The record does not define 0% and 100%; most values in the screen are far below 50% and negative numbers occur (in some assays of this library far below -100). The compounds are a random part of those screened.

Result for CC(NC(=O)CCNS(C)(=O)=O)c1ccc(F)c(F)c1 (stereo not shown) was -1.599%.
Result for O=C1CCCCCCN1CC(=O)N1CCCS1(=O)=O was -6.212%.
Result for NC(=O)COc1ccc(CN2CCCC2)cc1Cl was 6.364%.
Result for Cc1nccn1CCCNC(=O)c1cn(CCN)nn1 was -6.752%.
Result for NCC1Cc2ccccc21 (stereo not shown) was 62.61%.
Result for Cc1ccc(CN)cc1S(C)(=O)=O was -13.4%.
Result for O=C(CN1CCOCC1)c1nccs1 was -49.84%.
Result for CC(=O)NCCNCc1cc(O)c2cc(F)ccc2n1 was -3.92%.
Result for COCC[C@]1(O)CCN(Cc2ncccc2C)C[C@H]1C was -16.97%.
Result for CC1(C)OC(=O)N(Cc2cc(=O)n3ccsc3n2)C1=O was 21.11%.
Result for CSc1nc2ccccc2n1CC(N)=O was -9.398%.
Result for Cc1csc(NC(=O)CNC(=O)c2cccs2)n1 was 29.32%.
Result for CCc1nc2c(c(NC)n1)CCNCC2 was -5.978%.
Result for Cn1nnnc1SCc1cc(Cl)c2c(c1)OCCO2 was 9.402%.
Result for NC(=O)NC(=O)CN1CCCC1c1ccsc1 (stereo not shown) was -13.75%.
Result for O=S(=O)(CCO)NCc1ccccc1 was 8.128%.
Result for Cc1noc(C)c1CN(C)CC(=O)NCc1ccco1 was 11.45%.
Result for CNC(=O)c1ccc(CNC(=O)c2ccoc2C)cc1 was -2.448%.
Result for Cc1ccc(S(=O)(=O)NCCS(C)(=O)=O)cc1C was -3.766%.
Result for N#Cc1nc(NCCSCCCO)ccc1Cl was 82.95%.
Result for CN(C)CC(=O)N1CCCC1C(C)(C)O (stereo not shown) was 24.67%.
Result for CCCNC(=O)c1ccc(CN2CCOCC2)cc1 was 17.53%.
Result for CCC[C@H]1CN(C(=O)c2cc(F)ccc2OC)C[C@@H]1N was 14.63%.
Result for CN(CCCOc1ccccc1)C(=O)C1CNC(=O)N1 (stereo not shown) was 2.862%.
Result for O=C(Nc1cccc(F)c1)N1CCCN(CCO)CC1 was 7.31%.
Result for CN(C)c1ncc(CN)n1C was 1.079%.
Result for Cc1ccccc1CNC(=O)c1ccn(C)c(=O)c1 was 9.473%.
Result for CC(=O)c1cccc(NC(=O)c2cn(C)nc2C)c1 was 22.24%.
Result for CNC(=O)C1(c2ccccc2)CCN(C(C)=O)CC1 was 5.013%.
Result for NC(=O)Cc1ccccc1NC(=O)N1CCOCC1 was -7.912%.
Result for O=C(c1cc(Cl)c[nH]1)N1CCC(N2CCSCC2)CC1 was -4.006%.
Result for CCC(CO)NC(=O)c1ccccc1OC(F)(F)F (stereo not shown) was 26.06%.
Result for NC(=O)C1(NCCSCc2ccccc2)CC1 was -18.09%.
Result for NC(=O)NC(=O)CSc1ncccn1 was -7.789%.
Result for Cc1nsc(N2CCN(c3ccccn3)CC2)n1 was 7.164%.
Result for CCS(=O)(=O)N(CCc1cccs1)CC(=O)NC was -3.324%.
Result for COc1cc(F)c(C(=O)N2CCC(OC)C2)c(F)c1 (stereo not shown) was 2.235%.
Result for Cc1cccc(C)c1OC1CN(C(=O)CS(C)(=O)=O)C1 was 10.54%.
Result for CS(=O)(=O)c1ccc(NC(=O)CN)cc1 was 3.819%.
Result for CN(C)S(=O)(=O)c1ccc(O)cc1 was 12.15%.
Result for CC(=O)Nc1nc(C(=O)NCCc2cccnc2)cs1 was -19%.
Result for Cc1cnc(C(=O)NCc2ccc(C)n2C)cn1 was 46.43%.
Result for Cc1ccsc1CNC(=O)CSCC#N was -2.262%.
Result for Cc1cc(C(=O)NCc2ccc(CO)cc2)cc(C)n1 was 4.126%.

The first 6 entries again:

* CC(NC(=O)CCNS(C)(=O)=O)c1ccc(F)c(F)c1 (stereo not shown) | -1.599%
* O=C1CCCCCCN1CC(=O)N1CCCS1(=O)=O | -6.212%
* NC(=O)COc1ccc(CN2CCCC2)cc1Cl | 6.364%
* Cc1nccn1CCCNC(=O)c1cn(CCN)nn1 | -6.752%
* NCC1Cc2ccccc21 (stereo not shown) | 62.61%
* Cc1ccc(CN)cc1S(C)(=O)=O | -13.4%